Experimental data published in patent US10561616B2, “Sustained release dosage forms for a JAK1 inhibitor” (Incyte Corporation, priority 2013, dated 2020).
Some results were stated once for a whole list of compounds, not compound by compound.

Sequences of proteins named here, by UniProt entry; tags and fusion partners are left off. Residues count along the entry.
UniProt O60674, 828-1132: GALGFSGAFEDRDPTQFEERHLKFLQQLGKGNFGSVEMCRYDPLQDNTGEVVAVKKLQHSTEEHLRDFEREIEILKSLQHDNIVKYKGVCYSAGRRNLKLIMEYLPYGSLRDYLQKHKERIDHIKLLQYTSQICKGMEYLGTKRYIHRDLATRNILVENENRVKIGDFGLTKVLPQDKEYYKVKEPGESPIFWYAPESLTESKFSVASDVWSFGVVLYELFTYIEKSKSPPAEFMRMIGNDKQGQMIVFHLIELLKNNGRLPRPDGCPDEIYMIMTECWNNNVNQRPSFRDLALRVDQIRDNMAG

Target: T1, JAK2 (a.a. 828-1132) (Homo sapiens, UniProt O60674)
T1 construct: JAK2 (a.a. 828-1132); His tag (N); made in house; host or cells: insect cells (baculovirus)
Experiment: In vitro JAK kinase assay (HTRF), JAK2
Type: biochemical
Conditions: IC50 ratio; measured at 1 mM ATP

SMILES: N#CCC1(n2cc(-c3ncnc4[nH]ccc34)cn2)CN(C2CCN(C(=O)c3ccnc(C(F)(F)F)c3F)CC2)C1 [compound of Formula I, {1-{1-[3-fluoro-2-(trifluoromethyl)isonicotinoyl]piperidin-4-yl}-3-[4-(7H-pyrrolo[2,3-d]pyrimidin-4-yl)-1H-pyrazol-1-yl]azetidin-3-yl}acetonitrile]
- JAK2/JAK1 ratio: > 10
